Experimental data taken from patent US20220081485A1.
Numbering of substitutions follows the chain as printed. These are yes or no findings as the source states them, for the method shown. Some binding calls cover weakened binding; strength is not graded here.

B1: L10C2-IgG4 (antibody, V domains shown)
VH: EVQLVESGGGLVQPGGSLRLSCAVSGFTFSSYAMSWVRQAPGKGLEWVSSITGGGGGIYYADSVKGRFTISRDNSKNTVYLQMNSLRAEDTAVYYCAKDRISITIRPRYFGLDFWGQGTTVTVSS
VL: DIVMTQSPLSLPVTAGAPASISCRSSQSLLYSNGYNYLDWYMQKPGQSPQLLIYLGSNRASGVPDRFSGSGSGTDFTLKISRVEAEDVGVYYCMQALETPYAFGQGTKVEIKR
B2: L18D7-IgG4 (antibody, V domains shown)
VH: B1 VH
VL: DIVMTQSPLSLPVTPGEPASISCRSSQSLLYSIGYNYLDWYLQKSGQSPQLLIYLGSNRASGVPDRFSGSGSGTDFTLKISRVEAEDVGFYYCMQSFKAPYTFGQGTKLEIKR
B3: L28F8-IgG4 (antibody, V domains shown)
VH: B1 VH
VL: B2 VL with S28N, L29V, L30V, S32G, I33N, S57T, R59V, S61A, F97L, K98Q
B4: L10B2-IgG4 (antibody, V domains shown)
VH: B1 VH
VL: DIVMTQSPLSLPVTPGEPASISCRSSHNLLYSNGYNYLDWYLQKPGQSPQLLIYLGSNRAYGVPDRFSGSGSGTDFTLKISRVEAEDVGVYHCMQALQSPYTFGQGTKVDIKR

Molecular target: IL4R-mFc (human IL-4R extracellular domain fused to murine IgG2a Fc) (human (Homo sapiens))
Experiment: blocking ELISA: antibody gradient with IL4-his at a fixed concentration on coated IL4R-mFc; bound IL4-his detected with HRP-mouse-anti-his IgG

| binding | Binder |
| --- | --- |
| binds | B1 |
| binds | B2 |
| binds | B3 |
| binds | B4 |
